Reference: the supplement of paper PMC10849652
Some of the results follow.

Protein sequences, listed by entry. Tags and fused reporters are not part of them. Lines headed by an entry give the natural chain unless they say otherwise; changes in a name come on top.
UniProt P98179: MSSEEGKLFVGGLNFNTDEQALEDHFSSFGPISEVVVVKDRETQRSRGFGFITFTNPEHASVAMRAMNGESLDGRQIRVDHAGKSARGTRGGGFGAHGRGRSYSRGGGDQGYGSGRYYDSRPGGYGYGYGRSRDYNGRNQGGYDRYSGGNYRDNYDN
UniProt O43502: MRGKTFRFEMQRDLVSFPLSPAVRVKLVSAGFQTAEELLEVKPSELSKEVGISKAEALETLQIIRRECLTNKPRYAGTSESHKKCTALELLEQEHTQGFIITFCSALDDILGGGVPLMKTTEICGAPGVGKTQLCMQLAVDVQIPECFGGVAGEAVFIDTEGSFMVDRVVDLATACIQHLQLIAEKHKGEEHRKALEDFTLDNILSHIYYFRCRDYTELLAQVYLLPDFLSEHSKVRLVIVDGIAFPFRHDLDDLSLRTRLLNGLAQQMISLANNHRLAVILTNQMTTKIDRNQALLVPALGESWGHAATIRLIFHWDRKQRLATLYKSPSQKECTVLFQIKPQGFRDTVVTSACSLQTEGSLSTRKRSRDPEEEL
UniProt Q7Z6M1: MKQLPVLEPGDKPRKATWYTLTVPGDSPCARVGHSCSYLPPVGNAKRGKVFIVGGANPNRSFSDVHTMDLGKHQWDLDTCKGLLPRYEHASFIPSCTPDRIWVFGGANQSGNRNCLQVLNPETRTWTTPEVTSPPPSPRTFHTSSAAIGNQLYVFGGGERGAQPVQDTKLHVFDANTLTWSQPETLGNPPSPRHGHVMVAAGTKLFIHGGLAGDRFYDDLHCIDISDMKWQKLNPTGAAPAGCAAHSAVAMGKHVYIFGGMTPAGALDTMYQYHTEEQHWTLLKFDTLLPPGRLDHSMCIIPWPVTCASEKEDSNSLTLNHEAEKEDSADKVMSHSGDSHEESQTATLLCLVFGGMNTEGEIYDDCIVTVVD
UniProt Q13636: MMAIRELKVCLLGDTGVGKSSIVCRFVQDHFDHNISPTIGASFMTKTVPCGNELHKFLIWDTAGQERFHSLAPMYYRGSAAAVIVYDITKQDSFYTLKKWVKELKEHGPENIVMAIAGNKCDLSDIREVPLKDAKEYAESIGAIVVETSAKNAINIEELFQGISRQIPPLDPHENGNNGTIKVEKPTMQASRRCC
UniProt P53611: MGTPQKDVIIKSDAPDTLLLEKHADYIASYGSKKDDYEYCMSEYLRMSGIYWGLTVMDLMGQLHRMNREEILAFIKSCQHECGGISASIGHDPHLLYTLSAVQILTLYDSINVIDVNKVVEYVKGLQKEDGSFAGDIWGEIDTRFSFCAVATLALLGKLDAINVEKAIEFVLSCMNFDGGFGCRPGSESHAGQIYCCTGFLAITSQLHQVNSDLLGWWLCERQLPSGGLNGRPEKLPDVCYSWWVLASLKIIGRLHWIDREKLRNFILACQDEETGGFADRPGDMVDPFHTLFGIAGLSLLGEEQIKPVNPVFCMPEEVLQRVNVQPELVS
UniProt P46060: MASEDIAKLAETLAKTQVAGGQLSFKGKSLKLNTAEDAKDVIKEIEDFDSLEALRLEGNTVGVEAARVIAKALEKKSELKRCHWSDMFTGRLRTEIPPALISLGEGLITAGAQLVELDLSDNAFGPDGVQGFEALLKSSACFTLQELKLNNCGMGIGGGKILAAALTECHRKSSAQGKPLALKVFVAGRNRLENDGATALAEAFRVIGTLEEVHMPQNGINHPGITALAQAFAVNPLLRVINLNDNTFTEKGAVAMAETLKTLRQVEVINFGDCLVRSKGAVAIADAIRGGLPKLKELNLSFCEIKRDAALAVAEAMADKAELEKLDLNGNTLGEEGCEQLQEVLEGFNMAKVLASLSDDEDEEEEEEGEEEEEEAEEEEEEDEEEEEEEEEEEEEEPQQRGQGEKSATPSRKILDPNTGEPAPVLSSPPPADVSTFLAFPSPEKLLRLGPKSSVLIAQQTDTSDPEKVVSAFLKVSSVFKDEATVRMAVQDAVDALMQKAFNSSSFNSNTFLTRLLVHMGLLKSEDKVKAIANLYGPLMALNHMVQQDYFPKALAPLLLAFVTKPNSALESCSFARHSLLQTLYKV
UniProt P06400: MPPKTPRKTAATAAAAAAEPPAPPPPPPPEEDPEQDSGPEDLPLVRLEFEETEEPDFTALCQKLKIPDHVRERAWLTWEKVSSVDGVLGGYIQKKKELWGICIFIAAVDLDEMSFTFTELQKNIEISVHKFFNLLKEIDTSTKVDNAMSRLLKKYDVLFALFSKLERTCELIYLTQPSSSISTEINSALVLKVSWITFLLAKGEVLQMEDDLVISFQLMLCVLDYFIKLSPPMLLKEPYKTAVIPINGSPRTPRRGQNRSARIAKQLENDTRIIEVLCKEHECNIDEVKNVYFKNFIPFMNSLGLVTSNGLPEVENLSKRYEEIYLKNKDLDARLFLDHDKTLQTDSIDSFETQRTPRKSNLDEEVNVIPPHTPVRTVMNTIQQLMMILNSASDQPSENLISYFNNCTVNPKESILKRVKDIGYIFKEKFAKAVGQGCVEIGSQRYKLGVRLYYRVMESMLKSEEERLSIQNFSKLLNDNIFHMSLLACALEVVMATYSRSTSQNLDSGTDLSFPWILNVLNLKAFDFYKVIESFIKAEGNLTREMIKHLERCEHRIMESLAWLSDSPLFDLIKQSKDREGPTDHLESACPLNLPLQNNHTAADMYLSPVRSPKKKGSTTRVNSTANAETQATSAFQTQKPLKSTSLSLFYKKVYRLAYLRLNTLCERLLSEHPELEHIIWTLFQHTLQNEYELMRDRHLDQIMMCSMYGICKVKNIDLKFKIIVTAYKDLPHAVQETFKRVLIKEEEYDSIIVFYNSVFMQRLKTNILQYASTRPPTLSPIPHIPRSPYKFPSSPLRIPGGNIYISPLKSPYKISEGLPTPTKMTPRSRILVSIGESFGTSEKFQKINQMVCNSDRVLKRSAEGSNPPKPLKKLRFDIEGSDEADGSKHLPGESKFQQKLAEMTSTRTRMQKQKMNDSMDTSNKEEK
UniProt Q9BTL3: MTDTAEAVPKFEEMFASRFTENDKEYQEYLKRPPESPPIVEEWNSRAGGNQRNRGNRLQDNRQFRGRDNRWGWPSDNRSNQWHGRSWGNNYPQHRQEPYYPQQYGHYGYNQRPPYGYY
UniProt Q6GYQ0: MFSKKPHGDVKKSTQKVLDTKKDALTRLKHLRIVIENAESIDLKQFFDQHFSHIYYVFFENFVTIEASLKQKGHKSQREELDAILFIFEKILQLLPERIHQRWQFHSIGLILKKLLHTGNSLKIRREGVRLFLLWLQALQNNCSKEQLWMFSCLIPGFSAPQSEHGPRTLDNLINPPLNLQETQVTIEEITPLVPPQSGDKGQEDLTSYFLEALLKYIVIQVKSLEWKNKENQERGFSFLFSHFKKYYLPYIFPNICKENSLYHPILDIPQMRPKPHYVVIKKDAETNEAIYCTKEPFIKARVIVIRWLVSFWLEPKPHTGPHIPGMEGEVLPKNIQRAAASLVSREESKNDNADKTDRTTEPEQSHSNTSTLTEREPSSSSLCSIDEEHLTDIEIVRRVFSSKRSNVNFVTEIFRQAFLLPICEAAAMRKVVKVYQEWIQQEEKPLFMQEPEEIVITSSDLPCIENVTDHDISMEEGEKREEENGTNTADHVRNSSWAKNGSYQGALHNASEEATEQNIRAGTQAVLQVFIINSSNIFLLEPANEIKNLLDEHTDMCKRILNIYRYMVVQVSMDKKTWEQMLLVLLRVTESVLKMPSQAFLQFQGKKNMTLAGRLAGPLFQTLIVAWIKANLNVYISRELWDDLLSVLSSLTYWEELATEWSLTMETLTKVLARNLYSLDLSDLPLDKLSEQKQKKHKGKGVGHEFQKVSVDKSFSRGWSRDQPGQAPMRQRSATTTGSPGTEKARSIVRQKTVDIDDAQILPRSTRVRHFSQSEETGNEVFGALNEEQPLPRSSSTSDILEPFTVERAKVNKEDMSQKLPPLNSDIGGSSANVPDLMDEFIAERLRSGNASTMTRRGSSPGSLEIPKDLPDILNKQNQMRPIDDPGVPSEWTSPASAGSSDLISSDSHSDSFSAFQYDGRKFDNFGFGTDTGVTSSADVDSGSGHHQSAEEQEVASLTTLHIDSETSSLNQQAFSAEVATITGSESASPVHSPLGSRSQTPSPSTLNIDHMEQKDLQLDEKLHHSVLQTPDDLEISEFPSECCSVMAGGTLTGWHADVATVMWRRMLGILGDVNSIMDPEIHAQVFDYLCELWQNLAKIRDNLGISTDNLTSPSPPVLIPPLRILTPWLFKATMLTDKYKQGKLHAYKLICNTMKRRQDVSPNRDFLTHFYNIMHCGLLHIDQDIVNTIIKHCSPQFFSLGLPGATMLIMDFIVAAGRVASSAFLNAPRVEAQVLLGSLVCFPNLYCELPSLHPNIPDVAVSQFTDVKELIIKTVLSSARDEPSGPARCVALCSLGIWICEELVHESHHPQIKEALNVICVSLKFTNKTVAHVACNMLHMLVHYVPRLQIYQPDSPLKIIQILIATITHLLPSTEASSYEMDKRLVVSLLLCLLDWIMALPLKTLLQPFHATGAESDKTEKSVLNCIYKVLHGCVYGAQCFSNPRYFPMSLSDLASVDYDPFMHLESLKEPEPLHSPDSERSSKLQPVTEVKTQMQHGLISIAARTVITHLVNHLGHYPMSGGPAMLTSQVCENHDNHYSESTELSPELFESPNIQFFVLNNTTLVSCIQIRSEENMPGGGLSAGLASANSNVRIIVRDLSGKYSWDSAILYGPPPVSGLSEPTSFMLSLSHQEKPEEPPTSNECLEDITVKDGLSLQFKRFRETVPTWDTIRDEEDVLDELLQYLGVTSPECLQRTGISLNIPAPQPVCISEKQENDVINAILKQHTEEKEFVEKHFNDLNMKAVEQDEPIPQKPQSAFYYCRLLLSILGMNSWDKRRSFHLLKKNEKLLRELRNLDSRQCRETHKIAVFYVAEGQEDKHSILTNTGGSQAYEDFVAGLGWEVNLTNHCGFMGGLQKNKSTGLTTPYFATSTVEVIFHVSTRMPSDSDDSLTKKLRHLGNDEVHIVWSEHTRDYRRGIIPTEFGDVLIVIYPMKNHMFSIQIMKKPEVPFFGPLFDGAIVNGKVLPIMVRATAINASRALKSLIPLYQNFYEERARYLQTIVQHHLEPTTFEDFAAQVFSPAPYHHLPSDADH
UniProt P54727: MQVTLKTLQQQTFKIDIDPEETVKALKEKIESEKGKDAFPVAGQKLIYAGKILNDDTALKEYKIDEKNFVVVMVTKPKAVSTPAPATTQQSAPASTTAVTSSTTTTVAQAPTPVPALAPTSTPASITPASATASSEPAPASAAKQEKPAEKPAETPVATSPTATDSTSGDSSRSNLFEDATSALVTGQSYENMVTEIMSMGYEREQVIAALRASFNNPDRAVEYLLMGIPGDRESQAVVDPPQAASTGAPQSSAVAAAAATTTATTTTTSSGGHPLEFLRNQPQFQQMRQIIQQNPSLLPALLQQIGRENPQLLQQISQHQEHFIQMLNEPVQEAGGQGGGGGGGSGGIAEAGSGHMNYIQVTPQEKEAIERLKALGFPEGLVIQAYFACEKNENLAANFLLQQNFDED
UniProt Q9H2T7: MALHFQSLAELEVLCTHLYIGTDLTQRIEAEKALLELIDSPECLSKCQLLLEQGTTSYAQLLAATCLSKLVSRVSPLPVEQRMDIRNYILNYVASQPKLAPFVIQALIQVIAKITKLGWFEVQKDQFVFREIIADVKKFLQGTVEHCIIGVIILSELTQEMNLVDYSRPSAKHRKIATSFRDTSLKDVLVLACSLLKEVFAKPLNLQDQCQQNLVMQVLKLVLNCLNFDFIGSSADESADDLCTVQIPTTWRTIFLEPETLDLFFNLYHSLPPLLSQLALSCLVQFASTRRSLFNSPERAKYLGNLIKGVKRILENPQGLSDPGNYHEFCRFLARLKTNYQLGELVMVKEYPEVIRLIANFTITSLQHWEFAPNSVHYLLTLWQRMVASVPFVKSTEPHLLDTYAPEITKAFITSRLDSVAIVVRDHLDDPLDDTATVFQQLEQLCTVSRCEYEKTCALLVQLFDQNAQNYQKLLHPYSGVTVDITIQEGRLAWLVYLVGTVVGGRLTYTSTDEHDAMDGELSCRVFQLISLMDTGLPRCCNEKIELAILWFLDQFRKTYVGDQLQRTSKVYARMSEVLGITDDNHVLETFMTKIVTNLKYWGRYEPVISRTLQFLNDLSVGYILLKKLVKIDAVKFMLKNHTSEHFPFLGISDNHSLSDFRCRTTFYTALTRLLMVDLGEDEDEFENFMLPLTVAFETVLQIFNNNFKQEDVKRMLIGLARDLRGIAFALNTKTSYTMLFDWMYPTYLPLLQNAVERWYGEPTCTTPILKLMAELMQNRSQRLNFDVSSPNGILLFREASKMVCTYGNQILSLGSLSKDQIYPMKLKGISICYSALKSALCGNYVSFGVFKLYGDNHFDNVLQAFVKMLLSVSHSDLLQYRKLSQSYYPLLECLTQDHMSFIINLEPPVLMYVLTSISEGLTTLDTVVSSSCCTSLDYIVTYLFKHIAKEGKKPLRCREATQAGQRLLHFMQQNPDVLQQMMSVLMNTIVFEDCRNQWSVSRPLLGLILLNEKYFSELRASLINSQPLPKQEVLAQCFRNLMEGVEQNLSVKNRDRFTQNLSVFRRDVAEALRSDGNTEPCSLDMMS

Columns and labels:
Test in all cases: log2 fold change, soluble protein after heating vs DMSO (PISA); higher = thermal stabilisation; K562 cells, 10 uM, 30 min; active = over 0.2 and 3.5 SD of the protein, either way, in both replicates (recomputed)
[1] = compound: CS(=O)(=O)c1ccc(-c2cnc(N)c(C(=O)Nc3ccccc3)n2)cc1
In short: (§1)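 K562 cells at 2×10^6 cells/mL were given 10 μM compound for 30 min. Aliquots then went through 3 min of heating across 48°C-58°C, were pooled, and were extracted in PBS with 0.5% NP-40 at 4°C, and the supernatant after 21,000xg for 90 min was quantified by TMTpro 16plex LC-MS/MS with channel sums equalised. Thermal stability relative to control samples, from duplicates, is given as log2 fold change.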

crizotinib = compound: C[C@@H](Oc1cc(-c2cnn(C3CCNCC3)c2)cnc1N)c1c(Cl)ccc(F)c1Cl [crizotinib]
In short: as §1

[2] = compound: C[C@@H]1COCCN1C2=NC(=NC(=C2)C3(CC3)S(=O)(=O)C)C4=C5C=CNC5=CC=C4
In short: as §1

[3] = compound: C[C@H](C1=CC=C(C=C1)C(=O)NC2=C3C=CNC3=NC=C2)N
In short: as §1

duvelisib = compound: C[C@H](Nc1ncnc2nc[nH]c12)c1cc2cccc(Cl)c2c(=O)n1-c1ccccc1 [duvelisib]
In short: as §1

gandotinib = compound: Cc1cc(Nc2cc(CN3CCOCC3)c3nc(C)c(Cc4ccc(Cl)cc4F)n3n2)n[nH]1 [gandotinib]
In short: as §1

tozasertib = compound: Cc1cc(Nc2cc(N3CCN(C)CC3)nc(Sc3ccc(NC(=O)C4CC4)cc3)n2)n[nH]1 [tozasertib]
In short: as §1

[4] = compound: Cc1cc(SCc2sc(-c3ccc(C(F)(F)F)cc3)nc2C)ccc1OCC(=O)O
In short: as §1

doramapimod = compound: Cc1ccc(-n2nc(C(C)(C)C)cc2NC(=O)Nc2ccc(OCCN3CCOCC3)c3ccccc23)cc1 [doramapimod]
In short: as §1

ispinesib = compound: Cc1ccc(C(=O)N(CCCN)[C@@H](c2nc3cc(Cl)ccc3c(=O)n2Cc2ccccc2)C(C)C)cc1 [ispinesib]
In short: as §1

Row | Target | log2 fold change [1] | log2 fold change (crizotinib) | log2 fold change [2] | log2 fold change [3] | log2 fold change (duvelisib) | log2 fold change (gandotinib) | log2 fold change (tozasertib) | log2 fold change [4] | log2 fold change (doramapimod) | log2 fold change (ispinesib)
1 | RAB10 (UniProt P61026) | inactive: 0.029 | inactive: 0.086 | inactive: 0.031 | inactive: -0.094 | inactive: 0.045 | inactive: -0.074 | inactive: 0.023 | inactive: -0.093 | inactive: -0.034 | inactive: 0.038
2 | RAN (UniProt P62826) | inactive: 0.031 | inactive: 0.043 | inactive: -0.023 | inactive: -0.041 | inactive: 0.006 | inactive: 0.018 | inactive: -0.04 | inactive: -0.06 | inactive: -0.025 | inactive: -0.01
3 | RBM3 (UniProt P98179) | inactive: -0.122 | inactive: 0.012 | inactive: -0.55 | inactive: 0.105 | inactive: -0.12 | inactive: 0.177 | inactive: -0.003 | inactive: 0.023 | inactive: -0.002 | inactive: -0.208
4 | RAD51C (UniProt O43502) | inactive: 0.063 | inactive: -0.107 | inactive: -0.003 | inactive: -0.007 | inactive: 0.062 | inactive: 0.12 | inactive: -0.022 | inactive: 0.065 | inactive: -0.052 | inactive: -0.02
5 | RABEPK (UniProt Q7Z6M1) | inactive: 0.033 | inactive: 0.039 | inactive: 0.061 | inactive: -0.008 | inactive: 0.003 | inactive: 0.038 | inactive: -0.04 | inactive: -0.024 | inactive: -0.006 | inactive: 0.02
6 | RAB31 (UniProt Q13636) | inactive: 0.037 | inactive: 0.103 | inactive: 0.053 | inactive: -0.037 | inactive: 0.076 | inactive: 0.13 | inactive: 0.025 | inactive: -0.018 | inactive: -0.025 | inactive: 0.06
7 | RAB6B (UniProt Q9NRW1) | inactive: -0.056 | inactive: 0.026 | inactive: 0.211 | inactive: -0.096 | inactive: 0.039 | inactive: -0.008 | inactive: 0.001 | inactive: -0.024 | inactive: 0.006 | inactive: 0.019
8 | RAP1B (UniProt F5GZG1) | inactive: 0.115 | inactive: 0.011 | inactive: 0.008 | inactive: 0.241 | inactive: 0.036 |  | inactive: 0.025 | inactive: -0.136 | inactive: 0.044 | 
9 | RALGAPB (UniProt Q86X10) | inactive: 0.263 | inactive: -0.132 | inactive: 0.014 | inactive: -0.204 | inactive: -0.222 |  | inactive: -0.006 | inactive: 0.014 | inactive: 0.122 | inactive: 0.073
10 | RABGGTB (UniProt P53611) | inactive: 0.004 | inactive: -0.012 | inactive: 0.085 | inactive: -0.04 | inactive: 0.064 | inactive: -0.047 | inactive: 0.002 | inactive: 0.007 | inactive: 0.063 | inactive: -0.073
11 | RANGAP1 (UniProt P46060) | inactive: 0.025 | inactive: -0.06 | inactive: 0.045 | inactive: 0.011 | inactive: -0.002 | inactive: -0.056 | inactive: 0.053 | inactive: 0.047 | inactive: -0.025 | inactive: -0.014
12 | RBM17 (UniProt Q96I25) | inactive: -0.043 | inactive: -0.065 | inactive: 0.106 | inactive: 0.02 |  | inactive: -0.031 |  | inactive: 0.106 | inactive: -0.028 | inactive: 0.007
13 | RAB3GAP2 (UniProt Q9H2M9) | inactive: 0.019 | inactive: -0.064 | inactive: -0.024 | inactive: 0.213 |  | inactive: 0.003 |  | inactive: 0.119 | inactive: 0.046 | inactive: -0.097
14 | RB1 (UniProt P06400) | inactive: 0.041 | inactive: -0.112 | inactive: 0.117 | inactive: -0.07 |  | inactive: -0.168 |  | inactive: -0.024 | inactive: 0.022 | inactive: -0.002
15 | RAPGEF6 isoform 4 (UniProt Q8TEU7) | inactive: 0.027 | inactive: -0.147 | inactive: -0.048 | inactive: 0.066 |  | inactive: -0.032 | inactive: -0.151 |  | inactive: 0.008 | inactive: -0.074
16 | RASA2 (UniProt Q15283) | inactive: 0.056 | inactive: 0.117 | inactive: 0.131 | inactive: 0.55 | inactive: -0.267 | inactive: 0.013 |  | inactive: 0.066 | inactive: -0.012 | inactive: -0.632

Row | Target | log2 fold change [1] | log2 fold change (crizotinib) | log2 fold change [2] | log2 fold change [3] | log2 fold change (duvelisib) | log2 fold change (gandotinib) | log2 fold change (tozasertib) | log2 fold change [4] | log2 fold change (doramapimod) | log2 fold change (ispinesib)
17 | RAMAC (UniProt Q9BTL3) | inactive: -0.099 | inactive: -0.005 | inactive: -0.095 | inactive: 0.083 | inactive: -0.031 | inactive: 0.061 | inactive: 0.049 | inactive: -0.055 | inactive: -0.004 | inactive: -0.015
18 | RALGAPA1 isoform 6 (UniProt Q6GYQ0) | inactive: 0.079 | inactive: 0.001 | inactive: -0.098 | inactive: 0.134 | inactive: 0.011 |  | inactive: -0.026 | inactive: -0.002 | inactive: 0.091 | inactive: -0.037
19 | RAB2B (UniProt Q8WUD1) | inactive: -0.024 | inactive: -0.02 | inactive: 0.006 | inactive: -0.08 | inactive: -0.035 | inactive: -0.068 | inactive: 0.013 | inactive: 0.004 | inactive: -0.009 | inactive: -0.013
20 | RBM12 (UniProt Q9NTZ6) | inactive: 0.079 | inactive: 0.005 | inactive: 0.16 | inactive: -0.109 |  | inactive: -0.132 |  | inactive: 0.1 | inactive: -0.076 | inactive: 0.008
21 | RBBP5 (UniProt Q15291) | inactive: -0.049 | inactive: 0.054 | inactive: -0.043 | inactive: 0.036 | inactive: -0.021 | inactive: -0.001 | inactive: 0.01 | inactive: -0.021 | inactive: -0.031 | inactive: 0
22 | RAD23B (UniProt P54727) | inactive: -0.002 | inactive: 0.044 | inactive: 0.019 | inactive: 0.001 | inactive: 0.005 | inactive: -0.013 | inactive: -0.003 | inactive: -0.065 | inactive: -0.013 | inactive: 0.008
23 | RANBP17 (UniProt Q9H2T7) | inactive: 0 | inactive: -0.151 | inactive: -0.232 | inactive: -0.271 | inactive: -0.151 | inactive: -0.021 | inactive: 0.014 | inactive: 0.068 | inactive: -0.046 | inactive: 0.02
24 | RAF1 isoform 2 (UniProt P04049) | inactive: 0.023 | inactive: -0.305 | inactive: -0.135 | inactive: -0.092 |  | inactive: 0.131 |  | inactive: 0.035 | inactive: 0.133 | inactive: -0.145
25 | RAB5C isoform 2 (UniProt P51148) | inactive: -0.015 | inactive: 0.099 | inactive: 0.015 | inactive: -0.092 |  | inactive: -0.021 |  | inactive: 0.014 | inactive: 0.013 | inactive: 0.054
26 | RANBP10 (UniProt Q6VN20) | inactive: -0.118 | inactive: 0.008 | inactive: -0.147 | inactive: 0.01 |  | inactive: 0.311 | inactive: 0.094 |  | inactive: -0.025 | inactive: -0.067
27 | RAB11A (UniProt P62491) | inactive: 0.035 | inactive: 0.018 | inactive: -0.055 | inactive: -0.091 | inactive: 0.069 | inactive: 0.076 | inactive: -0.076 | inactive: -0.094 | inactive: 0.021 | inactive: 0.019
28 | RAB21 (UniProt Q9UL25) | inactive: 0.029 | inactive: 0.033 | inactive: 0.02 | inactive: -0.048 | inactive: 0.049 | inactive: -0.067 | inactive: -0.02 | inactive: -0.007 | inactive: -0.01 | inactive: -0.023
29 | RASA1 (UniProt P20936) | inactive: 0.105 | inactive: -0.098 | inactive: 0.073 | inactive: 0.041 | inactive: -0.163 |  | inactive: 0.251 | inactive: 0.203 | inactive: -0.257 | inactive: -0.181
30 | RAB11FIP1 (UniProt Q6WKZ4) | inactive: -0.071 | inactive: -0.096 | inactive: -0.001 | inactive: -0.038 |  | inactive: -0.01 |  | inactive: -0.003 | inactive: 0.047 | active: -0.251
31 | RAB29 (UniProt O14966) | inactive: 0.103 | inactive: 0.029 | inactive: 0.057 | inactive: -0.024 | inactive: -0.02 | inactive: -0.177 | inactive: -0.028 | inactive: -0.042 | inactive: 0.009 | inactive: 0.028
32 | RAE1 (UniProt P78406) | inactive: 0.029 | inactive: -0.059 | inactive: -0.023 | inactive: 0.103 | inactive: -0.047 | inactive: 0.053 | inactive: -0.033 | inactive: 0.184 | inactive: 0.04 | inactive: -0.102

Retrieved one by one from the list above, 2 records:
Row | Target | log2 fold change [1] | log2 fold change (crizotinib) | log2 fold change [2] | log2 fold change [3] | log2 fold change (duvelisib) | log2 fold change (gandotinib) | log2 fold change (tozasertib) | log2 fold change [4] | log2 fold change (doramapimod) | log2 fold change (ispinesib)
17 | RAMAC (UniProt Q9BTL3) | inactive: -0.099 | inactive: -0.005 | inactive: -0.095 | inactive: 0.083 | inactive: -0.031 | inactive: 0.061 | inactive: 0.049 | inactive: -0.055 | inactive: -0.004 | inactive: -0.015
27 | RAB11A (UniProt P62491) | inactive: 0.035 | inactive: 0.018 | inactive: -0.055 | inactive: -0.091 | inactive: 0.069 | inactive: 0.076 | inactive: -0.076 | inactive: -0.094 | inactive: 0.021 | inactive: 0.019
